Consider 2 substances from article PMC7762499.

The chains behind the UniProt entries cited, without tags or fusion partners.
UniProt Q8VBV4: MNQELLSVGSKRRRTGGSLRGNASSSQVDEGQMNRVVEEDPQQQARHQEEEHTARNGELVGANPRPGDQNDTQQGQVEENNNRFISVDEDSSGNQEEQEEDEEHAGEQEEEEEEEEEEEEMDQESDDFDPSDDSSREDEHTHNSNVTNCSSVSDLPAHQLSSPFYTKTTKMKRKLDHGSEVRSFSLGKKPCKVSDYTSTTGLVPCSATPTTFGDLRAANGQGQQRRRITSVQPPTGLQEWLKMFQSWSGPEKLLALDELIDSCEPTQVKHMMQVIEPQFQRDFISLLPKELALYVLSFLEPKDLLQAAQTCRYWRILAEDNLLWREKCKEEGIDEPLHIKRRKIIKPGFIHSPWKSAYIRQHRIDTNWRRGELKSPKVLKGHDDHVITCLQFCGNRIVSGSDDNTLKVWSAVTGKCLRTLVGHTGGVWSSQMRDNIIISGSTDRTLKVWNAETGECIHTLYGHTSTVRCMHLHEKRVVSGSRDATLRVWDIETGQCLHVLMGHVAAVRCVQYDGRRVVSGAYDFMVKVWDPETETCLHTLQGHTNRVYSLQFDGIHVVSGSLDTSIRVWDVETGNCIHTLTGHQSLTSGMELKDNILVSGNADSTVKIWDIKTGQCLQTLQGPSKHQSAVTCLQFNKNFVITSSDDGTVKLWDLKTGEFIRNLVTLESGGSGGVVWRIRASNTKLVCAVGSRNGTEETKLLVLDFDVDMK
UniProt P01108: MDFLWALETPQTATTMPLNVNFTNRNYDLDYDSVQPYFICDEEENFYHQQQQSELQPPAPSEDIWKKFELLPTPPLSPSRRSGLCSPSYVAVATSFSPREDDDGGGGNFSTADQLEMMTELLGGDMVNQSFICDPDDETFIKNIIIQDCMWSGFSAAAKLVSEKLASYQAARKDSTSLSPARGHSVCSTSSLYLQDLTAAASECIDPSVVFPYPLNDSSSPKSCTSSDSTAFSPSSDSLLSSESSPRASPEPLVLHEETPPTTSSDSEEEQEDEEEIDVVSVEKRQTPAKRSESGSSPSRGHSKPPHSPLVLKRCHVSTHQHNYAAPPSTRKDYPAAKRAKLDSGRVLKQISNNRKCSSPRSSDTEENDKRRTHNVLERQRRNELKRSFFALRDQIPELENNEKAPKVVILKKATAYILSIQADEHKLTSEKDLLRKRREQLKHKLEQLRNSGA

Results are given in words; binding and its absence hold for the method and conditions named. Binding seen in cells or lysates may run through a third protein. Some entries that bind do so weakly or less than the wild type.

Test [1] addresses F-box and WD repeat domain-containing 7 (FBXW7) (mouse (endogenous in BMDMs)) (UniProt Q8VBV4). Kind of test: co-IP; endogenous proteins; BMDMs stimulated with LLC conditioned medium for the indicated times and treated with MG132; lysates in IP Lysis Buffer incubated overnight at 4 C with specific antibodies on protein G magnetic beads, IgG as control; immunoblot; done in both directions.

The target in test [2] is c-Myc (mouse (endogenous in BMDMs)) (UniProt P01108). The test is described as above.

For the substance c-Myc (from UniProt P01108 1-454), in test [1], the binding result is listed as “binds”. For “F-box and WD repeat domain-containing 7 (FBXW7) (from UniProt Q8VBV4 1-710)”, in test [2], the binding result is recorded as “binds”.
